Source: PMC8250429
No constants are given. Whether binding was seen depends on the method and setting. In cells and extracts the contact can be indirect. Some entries that bind do so weakly or less than the wild type.

Protein sequences, listed by entry. Tags and fused reporters are not part of them.
UniProt O94921: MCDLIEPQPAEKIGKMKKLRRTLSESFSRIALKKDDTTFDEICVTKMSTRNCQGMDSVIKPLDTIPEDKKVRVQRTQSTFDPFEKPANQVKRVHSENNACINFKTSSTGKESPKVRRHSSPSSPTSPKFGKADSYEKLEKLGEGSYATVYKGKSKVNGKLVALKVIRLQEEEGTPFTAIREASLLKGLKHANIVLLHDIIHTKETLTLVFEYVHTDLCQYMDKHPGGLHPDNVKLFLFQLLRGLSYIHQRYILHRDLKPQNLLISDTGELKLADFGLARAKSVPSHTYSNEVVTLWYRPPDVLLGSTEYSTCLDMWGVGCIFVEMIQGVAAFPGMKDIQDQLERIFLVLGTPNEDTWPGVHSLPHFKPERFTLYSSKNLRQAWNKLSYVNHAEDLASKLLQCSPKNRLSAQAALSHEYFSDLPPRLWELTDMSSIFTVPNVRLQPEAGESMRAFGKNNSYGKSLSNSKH

Biological target: PFTAIRE protein kinase 1 (PFTK1) (human (endogenous in H1299)) (UniProt O94921)
Assay: co-IP; H1299-CCNYm and H1299-CCNYc cells (stably expressing GFP-tagged CCNY isoforms); which protein was precipitated and the conditions are not told

binding: binds
Substance: Cyclin Y isoform 1 (CCNYm, membrane isoform) with GFP tag (from UniProt Q8ND76-1 1-341)
